This test is described as follows: IkB Signaling. The conditions noted are these: ABC-DLBCL IkBa-CBG/CBR dual luciferase ratio (green luciferase fused to IkBa over red control in OCI-Ly3 lymphoma cells), 4 h. Summed up:
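Curves were fitted separately to fusion (green), unfused (red) and ratio luminescence, then classed by r2, magnitude and activity. Cells: OCI-Ly3, 4 h compound plus doxycycline at 37C; 10 uM MG-132 defined full response.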

[1] abbreviates: measured here: control luc red channel unless noted.
Setting [2] is: measured here: IkB-luc green channel.
The mark [3] stands for this setting: measured here: control luc red channel.

The list shows a part of the results. The main result of the screen is listed elsewhere. These columns were measured beside it and carry no call. Compounds called inactive in the main read-out are mostly missing here. The note in brackets gives the kind of curve behind each potency; many fits are weak.

What is called AC50 is the concentration giving half of the maximal activity seen. As to `CC(C)CC(=O)NC1(C(F)(F)F)C(=O)Nc2c1c(=O)[nH]c(=O)n2-c1ccccc1` (stereo not drawn), the concentration at half-maximal activity (AC50) under setting [1] was 0.0126 µM [rising, full curve, poor fit].

Regarding `COc1cc(C(=O)NC(c2ccc(Cl)cc2)c2cc(Cl)c3cccnc3c2O)cc(OC)c1OC` (stereo not drawn), the AC50 under setting [1] is 31.6 µM [falling, partial curve, poor fit].

For the compound `c1ccc(C2(c3ccccc3)OCC(Cn3cncn3)O2)cc1` (stereo not drawn), the concentration at half-maximal activity (AC50) under setting [1] is 15.8 µM [falling, partial curve].

With `Cn1c(=O)c2c(-c3ccccc3)n(-n3cnnc3)cc2n(C)c1=O`, under setting [1], the concentration at half-maximal activity (AC50) is 31.6 µM [rising, partial curve] [measured here: IkB-luc green channel].

As to `CCOc1ccccc1NC(=O)C(CC)n1c(C(=O)OC)cc2occc21` (stereo not drawn), the AC50 under setting [1] was 3.16 µM [falling, single point].

Turning to `COc1cc(C2c3c(-c4ccccc4O)n[nH]c3C(=O)N2Cc2ccco2)ccc1OCC(C)C` (stereo not drawn), the AC50 under setting [1] is 25.1 µM [falling, single point].

As for `COc1ccc(N(C(=O)/C=C\C(=O)Nc2ccc(C)cc2)C(C(=O)NCc2ccco2)c2ccc(C)cc2)cc1` (stereo not drawn), under setting [1], the half-maximal activity concentration (AC50) is 25.1 µM [falling, partial curve].

`O=C(Cn1ncc2ccsc2c1=O)N1CCN(c2ccccc2F)CC1`: the concentration at half-maximal activity (AC50) under setting [1] was 39.8 µM [falling, single point].

Consider `Cc1ccc2cccc(OC(=O)c3ccc4c(c3)OCCO4)c2n1`, for which the AC50 under setting [1] is 31.6 µM [rising, partial curve] [measured here: IkB-luc green channel].

As to `COc1ccccc1CNC(=O)CC(c1ccc(C)cc1)N1Cc2ccccc2C1=O` (stereo not drawn), the half-maximal activity concentration (AC50) under setting [1] is 15.8 µM [falling, partial curve].

Consider `COc1ccc(CCNC(=O)CCS(=O)(=O)c2cc(Br)cc3c2N(C(C)=O)CC3)cc1OC`, for which the AC50 under setting [1] is 0.126 µM [rising, full curve, poor fit].

In the case of `Cc1ccc(CNC(=O)C2COc3ccccc3C2)cc1` (stereo not drawn), under setting [1], the half-maximal activity concentration (AC50) is 2.51 µM [rising, full curve, poor fit].

Regarding `COc1ccc2c(c1)Cc1sc(NC(=O)c3cccc(C)c3)nc1-2`, the AC50 under setting [1] is 7.94 µM [falling, partial curve].

Turning to `Cc1ccc(OCC(=O)OC2=C(C(=O)c3ccccc3)N(C)S(=O)(=O)c3ccccc32)cc1`, under setting [1], the AC50 is 25.1 µM [falling, single point].

For the compound `O=C(CCCSc1nnc(-c2cccs2)n1CC1CCCO1)c1ccccc1` (stereo not drawn), the AC50 under setting [1] is 39.8 µM [falling, partial curve].

With `CCCn1c(SCC(=O)Nc2ccccc2N2CCCCC2)nc2c1c(=O)n(C)c(=O)n2C`, the AC50 by setting is: under setting [2], 20 µM [falling, partial curve]; under setting [3], 20 µM [falling, partial curve].

For the compound `Cn1ccc2c(OCC(=O)NCc3ccccc3)cccc2c1=O`, the AC50 under setting [1] was 3.16 µM [rising, single point].

For `CC(C)c1nn2c(=O)cc(COC(=O)c3cccc(NC(=O)c4cccs4)c3)nc2s1`, the AC50 under setting [1] is 3.16 µM [falling, full curve].

Take `CCc1ccccc1NC(=O)CCOc1ccccc1`: the AC50 under setting [1] was 15.8 µM [falling, partial curve].

For the compound `Cc1ccccc1C(=O)Nc1ccc2nc(SCC(=O)N3CCc4ccccc43)sc2c1`, under setting [1], the AC50 was 3.16 µM [falling, partial curve].

In the case of `COc1ccccc1CNC(=O)Cn1ncn2c(cc3sccc32)c1=O`, the half-maximal activity concentration (AC50) under setting [1] was 3.98 µM [rising, partial curve].

On to `COc1ccccc1NC(=O)CC(c1cc(OC)c(OC)c(OC)c1)N1Cc2ccccc2C1=O` (stereo not drawn), for which the concentration at half-maximal activity (AC50) under setting [1] was 39.8 µM [falling, single point].

Take `CCCCCSc1nc2sc3c(c2c(=O)n1-c1ccc(OC)cc1)CCN(C(C)=O)C3`: the concentration at half-maximal activity (AC50) under setting [1] is 10 µM [falling, partial curve].

Consider `CCOc1cc(C(=O)OCC(=O)c2c(C)[nH]c3ccccc23)ccc1OCC(=O)N1CCOCC1`, for which the AC50 under setting [1] was 20 µM [falling, partial curve].

With `CCOC(=O)CSc1nnc2n(-c3ccccc3)c(=O)c3c4c(sc3n12)CC(C(C)(C)C)CC4` (stereo not drawn), the half-maximal activity concentration (AC50) under setting [1] was 39.8 µM [falling, single point].

On to `CCN(Cc1nc2ccccc2c(=O)[nH]1)Cc1cc(=O)oc2cc(C)c(C)cc12`, for which the AC50 under setting [1] was 25.1 µM [falling, partial curve].

Turning to `Cc1sc2ncn(CC(=O)N3CCN(c4ccc(F)cc4)CC3)c(=O)c2c1S(=O)(=O)N1CCC(C)CC1`, the AC50 under setting [1] was 15.8 µM [falling, partial curve].

In the case of `O=C(c1noc2c1CCCC2)N1CCCCC1`, the half-maximal activity concentration (AC50) under setting [1] is 12.6 µM [falling, partial curve].

As to `COC(=O)C1=C(c2ccccc2)c2ccccc2S(=O)(=O)N1CC(=O)Nc1ccc(F)c(F)c1`, the concentration at half-maximal activity (AC50) under setting [1] was 20 µM [falling, partial curve].

For the compound `Cc1cccc(OCc2nnc(SCC(=O)N(C(C)C)C(C)C)n2Cc2ccco2)c1C`, the concentration at half-maximal activity (AC50) under setting [1] was 25.1 µM [falling, partial curve].

Regarding `O=C(CCS(=O)(=O)c1cc2c(cc1Cl)NC(=O)CO2)NCc1ccccc1Cl`, the AC50 under setting [1] is 12.6 µM [falling, partial curve].

Regarding `COc1ccc(C2CC(=O)c3cnc(NC(=O)c4cccc(OC)c4)nc3C2)cc1` (stereo not drawn), under setting [1], the AC50 was 5.01 µM [falling, partial curve].

Regarding `Oc1c(C(c2ccc(Cl)cc2Cl)N2CCN(c3ccccc3)CC2)sc2nc(-c3ccco3)nn12` (stereo not drawn), the AC50 under setting [1] is 39.8 µM [falling, single point].

On to `O=C(NCc1cccc(Cl)c1)c1ccc(NC(=O)N2CC3CCCN3c3ccccc32)cc1` (stereo not drawn), for which the concentration at half-maximal activity (AC50) under setting [1] was 10 µM [falling, partial curve].

Turning to `C=CCN1CN(S(=O)(=O)c2cccs2)c2nc3ccccc3nc21`, the AC50 under setting [1] was 12.6 µM [falling, partial curve].

With `COc1ccc(NC(=O)CN2CCCN(Cc3ccc(Cl)cc3)S2(=O)=O)cc1Cl`, under setting [1], the half-maximal activity concentration (AC50) is 12.6 µM [falling, partial curve].

`Cc1ccc(S(=O)(=O)Nc2nc3ccccc3nc2NCc2ccco2)cc1C`: the half-maximal activity concentration (AC50) under setting [1] is 2 µM [falling, full curve].

Turning to `CCOC(=O)c1ccc(NC(=O)Cn2cc(C(=O)c3ccc(CC)cc3)c(=O)c3ccc(C)nc32)cc1`, under setting [1], the AC50 was 1 µM [falling, full curve, poor fit].

As for `CCOC(=O)c1cnc2ccccc2c1NCCc1ccc(OC)c(OC)c1`, the AC50 under setting [1] was 39.8 µM [falling, single point].

Consider `CC1CCc2nn(CC(=O)Nc3ccccc3Cl)cc2C1` (stereo not drawn), for which the AC50 under setting [1] is 3.16 µM [rising, single point].

As for `COc1ccc(NC(=O)C(=O)NCC(c2cccnc2)N2CCc3ccccc32)cc1OC` (stereo not drawn), the half-maximal activity concentration (AC50) under setting [1] was 0.0398 µM [rising, full curve].

`CN(Cc1ccccc1)S(=O)(=O)c1ccc(-c2cnc(C3CC3)o2)cc1`: the concentration at half-maximal activity (AC50) under setting [1] is 10 µM [falling, partial curve].

Take `COc1cccc(S(=O)(=O)N2CCN(Cc3ccc4c(c3)OCO4)CC2)c1`: the AC50 under setting [1] was 25.1 µM [falling, partial curve, poor fit].

As to `Cc1cccc(N2CCN(C(=O)CN3CCSc4ccccc43)CC2C)c1` (stereo not drawn), the AC50 under setting [1] was 31.6 µM [falling, partial curve].

With `COC(=O)c1sc(NC(=O)c2ccc(OC)cc2OC)nc1C`, under setting [1], the half-maximal activity concentration (AC50) was 0.00316 µM [falling, full curve].

For `CCCn1c(SCc2nc(-c3ccc(OC)c(OC)c3)no2)nnc1-c1ccccc1`, under setting [1], the AC50 was 39.8 µM [falling, single point].

On to `Cc1cc(Nc2ccc(F)cc2)n2c(nc3ccccc32)c1C#N`, for which the AC50 under setting [1] was 0.316 µM [rising, full curve].

As to `Cc1c(-c2nc(-c3ccccc3)no2)nnn1-c1cccc(C(F)(F)F)c1`, the half-maximal activity concentration (AC50) under setting [1] is 1.26 µM [falling, full curve].

Regarding `COc1ccccc1CNC(=O)c1ccc2c(c1)nc(C)n2-c1ccccc1OC`, the half-maximal activity concentration (AC50) under setting [1] was 10 µM [falling, partial curve, poor fit].

As for `CCn1cc(CN(C)C(=O)CSc2nc(-c3ccco3)cc(C(F)(F)F)n2)c(C)n1`, the concentration at half-maximal activity (AC50) under setting [1] is 31.6 µM [falling, partial curve].

`O=C(CSc1ncccc1C(=O)O)c1ccccc1`: under setting [1], the half-maximal activity concentration (AC50) is 39.8 µM [rising, single point].

With `CCOc1ccc(NC(=O)Cn2c(C)cc3ccccc3c2=O)cc1`, the concentration at half-maximal activity (AC50) under setting [1] is 12.6 µM [falling, partial curve].

For the compound `CCOc1ccccc1NC(=O)CN1C(=O)CC(c2ccc(OC)c(OC)c2)Sc2ccccc21` (stereo not drawn), the AC50 under setting [1] was 15.8 µM [falling, partial curve].

As for `COc1ccc(-c2n[nH]c(C(F)(F)F)c2-c2cc3ccccc3o2)c(O)c1`, the concentration at half-maximal activity (AC50) under setting [1] is 12.6 µM [falling, partial curve].

On to `COc1cc(OC)cc([C@H](CNc2ncnc3c2ncn3[C@@H]2O[C@@H](CO)[C@H](O)[C@@H]2O)c2ccccc2C)c1`, for which the AC50 is, setting by setting: under setting [2], 0.631 µM [rising, full curve, poor fit]; under setting [3], 0.02 µM [rising, full curve, poor fit].

For the compound `Cc1ccc(N2C(=O)CCSC23C(=O)N(Cc2ccccc2)c2ccccc23)cc1F` (stereo not drawn), under setting [1], the half-maximal activity concentration (AC50) was 12.6 µM [falling, partial curve].

As to `O=C(NCc1ccc(F)cc1)c1cc2c(=O)n3ccccc3nc2s1`, under setting [1], the AC50 was 1 µM [rising, full curve].

Take `Cc1ccc(CNC(=O)Cn2c(=O)n(-c3ccc(Cl)cc3)c(=O)c3c(C)c(C)sc32)cc1`: the AC50 under setting [1] is 0.316 µM [falling, partial curve].

For `O=C(NCc1ccccc1)c1nn(-c2ccccc2)nc1CO`, under setting [1], the concentration at half-maximal activity (AC50) is 31.6 µM [falling, single point].

With `Cc1cc(C)cc(NS(=O)(=O)c2ccc3[nH]cc(C(=O)N(C)Cc4ccccc4)c(=O)c3c2)c1`, the AC50 under setting [1] was 12.6 µM [falling, partial curve].

Turning to `Cc1nn(C)c2c1c(C(F)(F)F)cc(=O)n2C(C)C(=O)NCc1ccc(Cl)cc1` (stereo not drawn), under setting [1], the AC50 was 31.6 µM [falling, single point].

Values taken from PubChem BioAssay AID445 (National Center for Advancing Translational Sciences (NCATS), 2006).
